Reference: PubChem BioAssay AID624291 (National Center for Advancing Translational Sciences (NCATS), 2012)
About 220 (0.063%) of roughly 350,000 compounds were called active. This list was built around the results that the source calls inconclusive (neither active nor inactive); the mix of calls is not that of the screen. Calls come from the whole dose curve; as a rule, active = well fitted activation curve with a large enough effect; inconclusive = small, poorly fitted or top-dose-only effect; inactive = no such curve, though single readings can be large or run the other way. Potencies beside an inconclusive call are fits to weak or partial responses and may not hold up.

Assay: qHTS for Activators of Integrin-Mediated Alleviation for Muscular Dystrophy; note: nearly all actives have a fitted effect of over 60% in size;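 for activation: 100% = response of the positive control SU9516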
Settings: alpha7betagal myoblasts, beta-gal FDG fluorescence, 48 h; activation: at 38.3 µM (top of the series)
How it was run: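 alpha7betagal+/- myoblasts (passage 13, 250/well) treated 48 h at 37C with compounds at 1:260 dilution of DMSO stock. Lysed, then beta-galactosidase activity read as FDG fluorescence (ex 480/em 540) after 30 min, with pre-read for autofluorescence.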
Potency is the fitted concentration of half-maximal effect.

Compound | Potency | activation
C/C(=N\NC(=O)Cc1ccc(Cl)cc1)c1cccnc1 | inconclusive: 5.01 µM [activator, single point] | –
CC(Sc1ncn[nH]1)C(=O)Nc1cc(C(F)(F)F)ccc1Cl (stereo not given) | inconclusive: 5.01 µM [activator, single point] | –
CN(CCc1ccccc1)C(=O)c1cc(COc2ccc(F)cc2Cl)on1 | inactive | –
CC(=O)c1ccc(NC(=S)N2CCCC(CO)C2)cc1 (stereo not given) | inconclusive: 0.501 µM [activator, full curve, poor fit] | –
O=C(O)c1c[nH]c2cc(C(F)(F)F)ccc2c1=O | inactive | –
C=CCOc1ccc(C2=NOC(C(=O)Nc3ccc4c(c3)OCCO4)C2)cc1 (stereo not given) | inconclusive: 3.55 µM [activator, single point] | –
CCC(=O)c1c[nH]c(C(=O)NCc2cccnc2)c1 | inconclusive: 11.2 µM [activator, partial curve, poor fit] | –
Cc1cnc([N+](=O)[O-])n1CCOC(=O)NC(=O)c1ccc(F)cc1 | inconclusive: 20 µM [activator, single point] | –
O=[N+]([O-])c1ccc(NCCNCCOc2nonc2-c2ccccc2)c([N+](=O)[O-])c1 | inconclusive: 5.01 µM [activator, single point] | –
O=C(NCc1ccco1)C1c2ccccc2Oc2ccccc21 | inconclusive: 2.24 µM [activator, partial curve, poor fit] | –
Cc1ccc(NC(=O)CN(C)C(=O)c2cc(-c3cccs3)nn2-c2ccccc2)cc1 | inactive | –
CCOC(=O)C1CCN(c2ccc(Cl)nn2)CC1 | inactive | –
CCCNC(=O)c1nn2c(C(F)(F)F)cc(-c3ccccc3)nc2c1Br | inconclusive: 12.6 µM [activator, single point] | –
Cc1cc(C)cc(OCC(=O)NCc2cc(C)nc3ccccc23)c1 | inconclusive: 3.55 µM [activator, single point] | –
O=C(c1ccco1)N1CCN(C(=O)c2cccn3c(=O)c4c5c(sc4nc23)CCCC5)CC1 | inconclusive: 28.2 µM [activator, single point] | –
COc1ccc(S(=O)(=O)Nc2c(C)cccc2C)cc1-n1cnnn1 | inconclusive: 2 µM [activator, partial curve, poor fit] | –
COc1ccc(C)cc1-n1c(SCC(=O)Nc2cccc(C(=O)O)c2)nc2ccccc2c1=O | inconclusive: 7.94 µM [activator, partial curve, poor fit] | –
CC(=O)c1c(C)[nH]c(C2=NNC(=NCc3ccccc3)SC2)c1C | inconclusive: 10 µM [activator, single point] | –
C=CS(=O)(=O)c1c2cc(OC)ccc2nc2ccc(OC)cc12 | inactive | –
O=C(COC(=O)c1c[nH]c2ccccc12)NC1CCCC1 | inconclusive: 5.01 µM [activator, single point] | –

Compound | Potency | activation
CCCNC(=O)CCC(NS(=O)(=O)c1ccc(C)cc1)C(=O)NCCC (stereo not given) | inactive | –
CC(C)C(OC(=O)CN1C(=O)c2ccccc2C1=O)C(=O)NC1CCCC1 (stereo not given) | inconclusive: 5.62 µM [activator, partial curve, poor fit] | –
S=C(Nc1ccccc1)Nc1ccc(Br)cn1 | inactive | –
COc1ccc(CCNC(=O)COc2ccc3c(C)cc(=O)oc3c2)cc1OC | inconclusive: 2.51 µM [activator, single point] | –
Cc1cc(C)c(CN2CCN(CCCn3cnc(C(=O)Nc4ccc(C)c(C)c4)n3)CC2)c(C)c1 | inactive | –
CC1CCN(S(=O)(=O)c2ccc(C(=O)N3CCCC3C(=O)O)cc2)CC1 (stereo not given) | inconclusive: 28.2 µM [activator, single point] | –
CCOc1ccc(C(CC(=O)O)NC(=O)Cc2ccc(Cl)cc2)cc1 (stereo not given) | inconclusive: 28.2 µM [activator, single point] | –
O=C(c1cccs1)N(Cc1ccco1)c1nc(-c2ccc(F)cc2)cs1 | inconclusive: 10 µM [activator, partial curve] | –
COc1ccc(-c2c[n+]3c(n2-c2ccccc2)SCC3)cc1 | – | inconclusive: -28.4% [activator]
O=c1[nH]c(C2CCN(S(=O)(=O)Cc3ccccc3)CC2)nc2c1nnn2Cc1cccc(Cl)c1 | inconclusive: 28.2 µM [activator, single point] | –
N=C1SCC(=O)N1/N=C/c1ccccc1 | inconclusive: 12.6 µM [activator, single point] | –
COc1cc(/C=N/N2C(C)CCCC2C)cc(OC)c1O (stereo not given) | inconclusive: 1.41 µM [activator, partial curve, poor fit] | –
CCCS(=O)(=O)c1nc(S(=O)(=O)c2ccc(C)cc2)c(NCCCN2CCCC2=O)s1 | inconclusive: 31.6 µM [activator, partial curve, poor fit] | –
O=c1cc(-c2ccc(O)cc2)oc2ccc3ccccc3c12 | inactive | –
Oc1ccc(-c2nccc(-c3ccc(Cl)cc3)n2)cc1 | inconclusive: 7.08 µM [activator, single point] | –
O/N=C/c1ccc2ccccc2n1 | inactive | –
O=c1[nH]c(NCCO)c(N=Cc2ccccc2)c(=O)[nH]1 | inactive | –
Cc1sc2nc(NCCO)[nH]c(=O)c2c1C | inactive | –
O=C(NC1CC1)C(=O)c1c[nH]c2ccccc12 | inconclusive: 28.2 µM [activator, single point] | –
CS(=O)(=O)NCC(c1cccnc1)N1CCN(c2ccc(F)cc2)CC1 (stereo not given) | inconclusive: 31.6 µM [activator, single point] | –

Compound | Potency | activation
Nc1cccc(Oc2ccc3c(c2)C(=O)N(CC2CCCO2)C3=O)c1 (stereo not given) | inconclusive: 7.94 µM [activator, partial curve, poor fit] | –
Cc1ccc2cc(CN(CC3CCCO3)C(=O)NC3CCCCC3)c(=O)[nH]c2c1C (stereo not given) | inconclusive: 5.01 µM [activator, single point] | –
COCCn1c(C)nc2oc3ccc(Br)cc3c(=O)c2c1=O | inactive | –
COc1cc(Cl)cc(CN2CCC(CCC(=O)NC3CC3)CC2)c1OC | active: 7.08 µM | –
Cc1ccc(C(=O)N2CCCc3ccccc32)c(Cl)c1 | inactive | –
COc1ccc2nc(Nc3ccc4c(c3)OCO4)sc2c1 | inactive | –
COC(=O)Cc1ccc(NC(=S)Nc2cccc(C)n2)cc1 | inactive | –
O=C(CN1C(=O)c2cccc([N+](=O)[O-])c2C1=O)NCc1ccccc1 | inactive | –
C=CCN(CC=C)CCCOc1ccccc1C(=O)OC | inconclusive: 2.51 µM [activator, single point] | –
Nc1ccc(-c2ccc(C(=O)O)s2)cn1 | inactive | –
Cc1ccc(S(=O)(=O)NCCSCc2ccccc2)cc1 | inactive | –
COc1ccc(NC(=O)Nc2nnc(CC(=O)Nc3ccccc3)s2)cc1 | inconclusive: 28.2 µM [activator, single point] | –
CC(=O)NC(c1ccc(C)cc1)c1cc(Cl)c2cccnc2c1O (stereo not given) | inactive | –
S=C1NCN(CCc2ccccc2)CN1 | inactive | –
Cc1c(NC(=S)N/N=C/C=C/c2ccc([N+](=O)[O-])cc2)c(=O)n(-c2ccccc2)n1C | inactive | –
O=S(=O)(c1ccccc1)N1N=C(c2ccccc2)CC1c1ccccc1F (stereo not given) | inconclusive: 2 µM [activator, partial curve, poor fit] | –
COC(=O)c1ccc(/C=N/NC(=O)CC(=O)NCc2cccnc2)cc1 | inconclusive: 3.16 µM [activator, single point] | –
c1cncc(CSc2ccc(-c3cccs3)nn2)c1 | inactive | –
CCN(Cc1ccccc1)C(=S)NC(=O)c1ccccc1Br | inconclusive: 10 µM [activator, partial curve] | –
COc1cccc(NC(=O)Nc2cccc(C)n2)c1 | inconclusive: 3.16 µM [activator, single point] | –

Whole records, quoted from the list. Values in the order: Potency	activation
`COCCn1c(C)nc2oc3ccc(Br)cc3c(=O)c2c1=O` as listed: inactive	–
`CCN(Cc1ccccc1)C(=S)NC(=O)c1ccccc1Br` as listed: inconclusive: 10 µM [activator, partial curve]	–
`COc1cc(Cl)cc(CN2CCC(CCC(=O)NC3CC3)CC2)c1OC` as listed: active: 7.08 µM	–
